From EP0053015A1, “1-Phenylthio-2-aminopropane derivatives, their production and use” (Takeda Chemical Industries, Ltd., priority 1980, dated 1982)
At least one compound was matched to its structure with a doubt left.

Assay: Inventors' study of antiobesity, antidiabetic and anorectic effect of prior-art compounds
Type: in vivo
Conditions: according to the inventors' study; result in words
Source text: South African Patent No. 67/3108 describes the anti- depressive activity of 1-(4-chlorophenylthio)-2-aminopropane of the formula: [drawing 8] but this patent also says nothing about antiobesity or antidiabetic action. […] In contrast, the compounds of this invention exert strong and long-lasting antiobesity and antidiabetic effects because of their having the particular substituent (halogen) at the particular (para) position of the benzene ring and having the particular secondary amine-type structure.

CNC(C)CSc1ccccc1 (stereo not shown) [1-phenylthio-2-methyl-aminopropane, reference compound]
antiobesity or antidiabetic effect: no antiobesity or antidiabetic effect
